These are yes or no findings as the source states them, for the method shown. Where a sequence is shown, tags or fusion partners need not be part of it.

In assay [1] the target is T1, recombinant human Flag-tagged fortilin (human) (UniProt P13693).
T1 sequence: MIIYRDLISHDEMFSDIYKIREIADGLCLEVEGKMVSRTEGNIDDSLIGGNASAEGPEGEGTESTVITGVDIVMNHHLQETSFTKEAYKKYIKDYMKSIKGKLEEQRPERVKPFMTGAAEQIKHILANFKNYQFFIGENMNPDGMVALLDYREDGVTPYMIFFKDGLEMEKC
Description: co-IP; same procedure with recombinant Flag-fortilin, TGF-β2 or TGF-β3 and His6-NQO2; anti-fortilin mAb or IgG; five washes in Buffer B; western blot; both purified.

Assay [2] addresses T1, recombinant human Flag-tagged fortilin (human). Briefly: co-IP; in vitro mixture of recombinant Flag-fortilin, TGF-β1, Flag-p53 and His6-NQO2 in Buffer A (10 mM Tris pH 7.4, 100 mM NaCl, 0.01% NP-40); rabbit anti-fortilin mAb or rabbit IgG, 2 h room temperature; anti-rabbit IgG Dynabeads; four washes in Buffer B (0.3% NP-40); western blot; both purified.

B1: recombinant human His6-tagged N-Ribosyldihydronicotinamide:Quinone Reductase 2 (enzyme, UniProt P16083 1-231)
chain: MAGKKVLIVYAHQEPKSFNGSLKNVAVDELSRQGCTVTVSDLYAMNLEPRATDKDITGTLSNPEVFNYGVETHEAYKQRSLASDITDEQKKVREADLVIFQFPLYWFSVPAILKGWMDRVLCQGFAFDIPGFYDSGLLQGKLALLSVTTGGTAEMYTKTGVNGDSRYFLWPLQHGTLHFCGFKVLAPQISFAPEIASEEERKGMVAAWSQRLQTIWKEEPIPCTAHWHFGQ
For B1, the binding entry in assay [1] and in assay [2] was “no binding” throughout.

The values above are taken from paper PMC8866402.
